Results are given in words; binding and its absence hold for the method and conditions named. Some binding calls cover weakened binding; strength is not graded here.
Target: extracellular domain of the alpha subunit of the human FcεRI (aa 1-176) (human) (UniProt P12319)
Experiment: competitive phage ELISA on FcεRI (FIG. 3)

The chains behind the UniProt entries cited, without tags or fusion partners. Residues count along the entry.
UniProt P12319, residues 26-201: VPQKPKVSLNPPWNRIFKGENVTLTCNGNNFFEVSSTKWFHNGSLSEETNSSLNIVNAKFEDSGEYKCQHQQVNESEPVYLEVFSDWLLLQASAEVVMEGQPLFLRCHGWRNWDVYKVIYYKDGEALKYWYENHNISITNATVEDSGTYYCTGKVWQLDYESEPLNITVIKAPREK

IGE134-phage … (from UniProt P01241 27-217) (peptide)
binding: binds
